From PubChem BioAssay AID493014 (National Center for Advancing Translational Sciences (NCATS), 2011)
The other results are listed elsewhere or left out. Further columns of the screen follow, without active or inactive calls. Compounds called inactive in the main read-out are mostly missing here. Words in brackets tell the shape of the fitted curve; partial curves, single points and poor fits give uncertain potencies.

Test: qHTS Assay to Find Inhibitors of Chronic Active B-Cell Receptor Signaling
Settings: ABC-DLBCL IkBa-CBG/CBR reporter, luminescence ratio (green luciferase fused to IkBa over red control in TMD8 lymphoma cells), 4 h
Procedure, shortened: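 Doxycycline induced both beetle luciferases in TMD8 lymphoma cells; IKK-driven degradation limits the IkappaBalpha-fused green signal, while red luminescence normalises for cell number and nonspecific effects. Compounds tested up to 46 uM, 4 hrs.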

[1] = measured here: CBR red luminescence, cell number

Row | SMILES | AC50 [1] | AC50 (measured here: IkBa-CBG green luminescence)
1 | Cn1c(=O)[nH]c(=O)c2c1nc(CN1CCN(c3cccc(Cl)c3)CC1)n2CCc1ccccc1 | 1.64 µM [rising, partial curve] | 
2 | C=CCn1c(O)c(N=NC(=O)c2cccnc2)c2cc(Br)ccc21 | 0.1 µM [falling, full curve] | 
3 | CCCc1cc(=O)oc2cc(C)cc(OC(=O)c3ccco3)c12 | 2.06 µM [rising, full curve, poor fit] | 
4 | CCCCn1c(-c2csc3c2CCCC3)n[nH]c1=S | 32.6 µM [rising, partial curve, poor fit] | 
5 | CCCOc1ccc(C2C(C(=O)c3ccco3)=C(O)C(=O)N2CCCn2ccnc2)cc1 (stereo not given) | 0.282 µM [falling, full curve, poor fit] | 
6 | O=C(NC1CCCC1)c1cc2ccccc2o1 | 20 µM [falling, single point] | 
7 | CCOc1ccc(C(=O)N2CCN(C(=O)c3ccco3)CC2)cc1OCC | 3.66 µM [rising, partial curve, poor fit] | 
8 | CC(C)=CCc1c(O)ccc(C(=O)Cc2ccccc2)c1O | 12.6 µM [rising, partial curve, poor fit] | 
9 | COC(=O)CCNC(=O)Cc1c(C)n(C(=O)c2ccc(Cl)cc2)c2ccc(OC)cc12 | 17.8 µM [falling, partial curve, poor fit] | 
10 | Cc1ccc(-n2c(SCC(=O)N3CCC(C(=O)O)CC3)nc3ccccc3c2=O)cc1C | 5.01 µM [falling, partial curve, poor fit] | 
11 | Cc1nc(-c2ccccc2)sc1-c1n[nH]c(=S)n1C | 0.891 µM [rising, full curve, poor fit] | 
12 | COCCn1c(-c2ccccc2)cnc1N | 3.55 µM [rising, partial curve, poor fit] | 
13 | Nc1ccc(C(=O)N/N=C/c2sc(N3CCOCC3)nc2-c2ccccc2)cc1 | 20.6 µM [falling, partial curve] | 20.6 µM [falling, partial curve, poor fit]
14 | O=C(N/N=C/c1c[nH]c2ccccc12)c1cc(-c2cccc3ccccc23)n[nH]1 | 6.51 µM [rising, single point] | 
15 | Cc1cc(Nc2ccccc2)nn1C(=O)c1ccc(Br)cc1 | 10.3 µM [rising, partial curve, poor fit] | 
16 | N#CCCn1cc(C(=O)Nc2ccc([N+](=O)[O-])cc2)c(-c2cc3ccccc3o2)n1 | 12.6 µM [rising, single point] | 
17 | N#Cc1c(NC(=O)c2cc([N+](=O)[O-])ccc2N2CCOCC2)sc2c1CCCC2 | 2.59 µM [rising, partial curve, poor fit] | 
18 | CCOC(=O)C1CSC(CC(=O)Nc2ccc(OC(F)(F)F)cc2)C(=O)N1 (stereo not given) | 1 µM [rising, full curve, poor fit] | 
19 | O=C(NC12CC3CC(CC(C3)C1)C2)c1ccc(-c2ccccc2Cl)o1 | 8.91 µM [rising, partial curve, poor fit] | 
20 | O=C(Nc1nccs1)c1cc(N2CCOCC2)nc2ccccc12 | 5.62 µM [falling, partial curve, poor fit] | 

Row | SMILES | AC50 [1] | AC50 (measured here: IkBa-CBG green luminescence)
21 | Cc1cccc(-c2nc3sc(C)cc3c(=O)o2)c1 | 3.98 µM [falling, full curve, poor fit] | 
22 | O=C(O)c1nn(CCOc2c(Cl)cccc2Cl)c(=O)c2ccccc12 | 3.16 µM [rising, single point] | 
23 | Cc1cc(C)c2cc3c(N)c(C(=O)Nc4c(C)[nH]c(=O)[nH]c4=O)sc3nc2c1 | 13 µM [falling, partial curve, poor fit] | 
24 | Cc1ccc(-n2c(SCC(=O)N3CCOCC3)nnc2-c2cccnc2)cc1 | 2.51 µM [rising, full curve, poor fit] | 
25 | O=C(CCc1nnc2n(Cc3ccc(F)cc3)c(=O)c3ccccc3n12)NCCCN1CCOCC1 | 3.55 µM [falling, full curve, poor fit] | 
26 | Cc1ccc2c(CN3CCOCC3)cc(=O)oc2c1C | 10 µM [rising, partial curve, poor fit] | 
27 | COc1cccc(N2CCN(c3ncccn3)CC2)c1 | 0.398 µM [rising, full curve, poor fit] | 
28 | Nc1ccc(C(=O)N/N=C/c2ccccc2)cc1 | 7.94 µM [falling, partial curve] | 
29 | COc1ccc(NC(=O)c2cccc(S(=O)(=O)N3CCc4ccccc43)c2)cn1 | 5.01 µM [falling, partial curve, poor fit] | 
30 | O=C(N/N=C/c1ccco1)c1cccc(NC(=O)c2cccc(Cl)c2)c1 | 3.98 µM [falling, full curve] | 
31 | O=C1CCCN1c1ccc(S(=O)(=O)NCCOc2ccccc2)cc1 | 0.092 µM [falling, partial curve, poor fit] | 
32 | CC(=O)c1ccc(N2CCN(C(=O)c3ccco3)C(C)C2)c(F)c1 (stereo not given) | 9.2 µM [rising, partial curve, poor fit] | 
33 | O=[N+]([O-])c1cccc(-c2nc(-c3cccs3)c(-c3cccs3)[nH]2)c1 | 35.5 µM [falling, single point] | 
34 | O=C(c1coc2ccc(O)cc12)C1CC1 | 6.31 µM [rising, partial curve, poor fit] | 
35 | Cc1cc(C(=O)N(C)C2CCCCC2)no1 | 0.562 µM [rising, full curve, poor fit] | 
36 | COc1ccc(CCN(C(=O)c2snc(C(N)=O)c2N)C(C)C(=O)NC2CCCCC2)cc1OC (stereo not given) | 0.1 µM [rising, full curve, poor fit] | 
37 | O=C(CSc1nnnn1-c1ccc(F)cc1)Nc1ccc(N2CCOCC2)c(Cl)c1 | 4.11 µM [rising, single point] | 
38 | COc1ccccc1NC(=O)Oc1ccc(NC(=O)c2ccco2)cc1 | 6.31 µM [falling, partial curve] | 
39 | Cc1cc(-c2ccc(NC(=O)[C@@H]3CCCC[C@@H]3C(=O)O)c(C)c2)ccc1NC(=O)[C@@H]1CCCC[C@@H]1C(=O)O | 35.5 µM [falling, single point] | 

Arranged by molecular weight (ascending): 3 of the compounds above.
Row | SMILES | AC50 [1] | AC50 (measured here: IkBa-CBG green luminescence)
35 | Cc1cc(C(=O)N(C)C2CCCCC2)no1 | 0.562 µM [rising, full curve, poor fit] | 
26 | Cc1ccc2c(CN3CCOCC3)cc(=O)oc2c1C | 10 µM [rising, partial curve, poor fit] | 
24 | Cc1ccc(-n2c(SCC(=O)N3CCOCC3)nnc2-c2cccnc2)cc1 | 2.51 µM [rising, full curve, poor fit] | 
